Reference: EP4635974A1, “COSMETIC COMPOSITION FOR SKIN IMPROVEMENT” (LG Household & Health Care Ltd., priority 2022, dated 2024)
Not every detail of the peptide structures is certain; ends, links or a residue may be inferred. Where no end group is shown, it is not given here.

Tested on: Collagenase derived from the mouse pancreas
Assay: Inhibition of collagenase activity (synthetic substrate, absorbance at 345 nm)
Format: biochemical
Conditions: Table 4; 100 µg/mL; relative enzyme activity versus the control group
Procedure: Collagenase derived from the mouse pancreas was used, and the synthetic substrate N-(3-[2-furyl]acryloyl)-Leu-Gly-Pro-Ala was used as the substrate of collagenase. A buffer solution in which 50 mM tricine, 10 mM CaCl2·H2O and 400 mM NaCl were dissolved (pH 7.5) was used. The synthetic substrate was dissolved in the buffer solution to a concentration of 10 mM and finally diluted to 75 µM. The collagenase was dissolved to a concentration of 1 unit/mL using cold triply distilled water at 4 °C and then finally diluted to 0.05 unit/mL using a buffer solution. The candidates of collagenase inhibition were tested at final concentrations of 25 and 50 ppm. As a positive control group, epigallocatechin gallate (EGCG) known to have the effect of inhibiting collagenase was used at a final concentration of 50 ppm. […] The inhibition of the enzyme activity was determined by measuring absorbance at 345 nm using a spectrophotometer with 1-minute intervals, and calculating the maximum slope of the absorbance versus time.
In order to investigate the effect of peptide sequence variation, the activity of […] was tested as in Test Example 1 after sequence variation. […] The inhibition of the enzyme activity was determined by measuring absorbance at 405 nm using a spectrophotometer with 1-minute intervals, and calculating the slope of the absorbance versus time. […]

| Substance | Inhibition of collagenase activity (%) |
| --- | --- |
| DVFCSSRGK [SEQ ID NO 15, DVFCSSRGK] | 27.7% |
| FCSSRGK [SEQ ID NO 16, FCSSRGK] | 21.3% |
